Laboratory results reported in article PMC12362813.
Results are given in words; binding and its absence hold for the method and conditions named. In cells and extracts the contact can be indirect. Some results given as binding are weak or reduced against the parent protein; the word gives no strength. For part of these data: Sequences can lack the tags named with a protein.

Chains of the proteins cited; added tags and fusions are not shown. Lines headed by an entry give the natural chain unless they say otherwise; changes in a name come on top. Residues count along the entry.
UniProt Q86WV6: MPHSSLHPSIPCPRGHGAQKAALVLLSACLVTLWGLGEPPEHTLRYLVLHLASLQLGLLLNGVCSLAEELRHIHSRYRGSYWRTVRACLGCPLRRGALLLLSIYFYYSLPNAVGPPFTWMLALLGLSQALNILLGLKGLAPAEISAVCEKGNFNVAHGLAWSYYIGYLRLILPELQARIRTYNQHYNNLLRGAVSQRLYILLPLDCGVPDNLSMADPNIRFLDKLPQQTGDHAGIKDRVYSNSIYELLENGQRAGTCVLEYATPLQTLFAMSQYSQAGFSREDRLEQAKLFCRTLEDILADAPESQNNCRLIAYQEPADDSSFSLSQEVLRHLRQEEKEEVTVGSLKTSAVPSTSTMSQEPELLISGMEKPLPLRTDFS
Flag-STING (amino acids 1–139): residues 1-139 of Q86WV6
UniProt Q9UNE7: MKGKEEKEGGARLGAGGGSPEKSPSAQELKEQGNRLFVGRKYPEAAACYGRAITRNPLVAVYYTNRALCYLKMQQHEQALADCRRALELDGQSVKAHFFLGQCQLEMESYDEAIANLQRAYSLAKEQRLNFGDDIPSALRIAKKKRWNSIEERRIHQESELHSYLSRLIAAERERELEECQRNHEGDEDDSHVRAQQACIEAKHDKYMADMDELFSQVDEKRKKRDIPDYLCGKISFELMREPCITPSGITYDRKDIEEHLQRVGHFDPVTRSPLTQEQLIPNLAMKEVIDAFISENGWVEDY

Columns and labels:
[1] = target: Flag-STING (amino acids 1–139) (UniProt Q86WV6); assay: co-IP; HEK293T cells co-transfected with tagged plasmids; MG132 (10 µM) for 6 h before lysis; tag antibody (Flag, GFP or HA) overnight at 4 °C, protein A/G beads 2 h at 4 °C, three washes; Western blot; also with siBAG2 (Figure 3M)
Flag-STING [2] = target: Flag-STING (UniProt Q86WV6); assay: as above
GFP-BAG2 = GFP-BAG2 (UniProt O95816); assay: as above
Flag-STING [3] = target: Flag-STING (UniProt Q86WV6); assay: co-IP; SiHa cells (Figure 3L; also Figure S2G) transfected with Flag-STING, HA-STUB1 and rising GFP-BAG2 (0.2, 1.0 or 4.0 µg); MG132 (10 µM) for 6 h; IP with Flag and HA antibodies; Western blot
Flag-STING [4] = target: Flag-STING (UniProt Q86WV6); assay: co-IP; HEK293T cells transfected with Flag-STING, HA-STUB1 and rising GFP-BAG2 (0.2, 1.0 or 4.0 µg); MG132 (10 µM) for 6 h; IP with Flag and HA antibodies; Western blot
[5] = target: BAG2 (endogenous) (human (endogenous in HeLa and SiHa)) (UniProt O95816); assay: co-IP; endogenous proteins in HeLa and SiHa cells; IP with antibodies against STING, BAG2 or STUB1, IgG control; MG132 (10 µM) for 6 h; Western blot; also after siBAG2 knock-down (more STUB1 with STING)
[6] = target: STING (endogenous) (human (endogenous in HeLa and SiHa)) (UniProt Q86WV6); assay: as above
[7] = target: STING (endogenous) (human (endogenous in HeLa and SiHa)) (UniProt Q86WV6); assay: proximity ligation; Duolink PLA in fixed HeLa cells with primary antibodies to the two proteins, anti-mouse PLUS and anti-rabbit MINUS probes; confocal microscopy
[8] = target: T1, GFP-BAG2 (amino acids 101–211) (UniProt O95816); assay: co-IP; HEK293T cells co-transfected with tagged plasmids; MG132 (10 µM) for 6 h before lysis; tag antibody (Flag, GFP or HA) overnight at 4 °C, protein A/G beads 2 h at 4 °C, three washes; Western blot; also with siBAG2 (Figure 3M)
T1 sequence: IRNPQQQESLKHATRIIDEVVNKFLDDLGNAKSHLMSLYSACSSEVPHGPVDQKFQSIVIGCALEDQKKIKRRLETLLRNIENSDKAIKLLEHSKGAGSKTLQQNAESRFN

Substance | binding (Flag-STING [2]) | binding (GFP-BAG2) | other results
GFP-BAG2 (from UniProt O95816 1-211) | binds |  | binding [1]: binds
GFP-BAG2 E192A (from UniProt O95816 1-211) | binds |  | 
Flag-STING L30A (from UniProt Q86WV6 1-379) |  | binds | 
HA-STUB1 (from UniProt Q9UNE7 1-303) (enzyme) | binds |  | binding (Flag-STING [3]): binds; binding (Flag-STING [4]): binds
Flag-STING W34A (from UniProt Q86WV6 1-379) |  | binds | 
GFP-BAG2 I188A/E192A (from UniProt O95816 1-211) | binds weakly |  | 
STING (endogenous) (from UniProt Q86WV6 1-379) |  |  | binding [5]: binds
GFP-BAG2 I188A (from UniProt O95816 1-211) | binds |  | 
BAG2 (endogenous) (from UniProt O95816 1-211) |  |  | binding [6]: binds; binding [7]: binds
STUB1 (endogenous) (from UniProt Q9UNE7 1-303) (enzyme) |  |  | binding [6]: binds; binding [7]: binds
Flag-STING L30A/W34A (from UniProt Q86WV6 1-379) |  | binds weakly | 
Flag-STING (from UniProt Q86WV6 1-379) |  | binds | binding [8]: binds
